Protein sequences can lack the tags named with them.
Molecular target: T1, QsrR (His6-QsrR) (UniProt Q92L17)
T1 sequence (looked up): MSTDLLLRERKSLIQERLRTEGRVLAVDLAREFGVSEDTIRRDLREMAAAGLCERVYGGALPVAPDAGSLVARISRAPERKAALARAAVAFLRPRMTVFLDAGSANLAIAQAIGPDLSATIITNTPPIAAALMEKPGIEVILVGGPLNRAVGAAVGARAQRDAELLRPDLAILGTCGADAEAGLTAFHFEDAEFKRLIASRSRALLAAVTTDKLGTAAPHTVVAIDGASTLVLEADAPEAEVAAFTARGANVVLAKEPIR
Test: EMSA
Settings: shift at 3.3 uM His6-QsrR, 0.005 nM probe, competed by ~100-fold unlabeled pexpR; DIG Gel Shift Kit 2nd Generation (Roche), per manufacturer; 0.005 nM labeled probe; pH and temperature not stated; recombinant protein; residues 1-260; protein details: His6 (pET28a); label: DIG; probe letters rebuilt from the primers and the genome

ATGCGGCCGCCCACCTTGCGTGCCGGCAAAGCCGCGGGTGACGGCCTTTGCGTTCTTCCCAAAAAACGCGGTAGACGGGGCGGATCAGCGAGAAGGATCATCCGATACCATGGGAGGGTTGGCGGGATGATTCATCGTTAGCTATCTTGATGCCTCGACTCCGAGTTTTTGCAGGTTTCCTGCAAGACCGGGCGTGATATGAAGAATTATCGCGGTTGCAACATGAATGGCTTCTGAACGGCGTATTCACATGGCCTGGCGGGTTGCGCGGCGCGTTTTTGATTTGAGGATGCTCTGAATTCCG (double strand) [pexpR (expR promoter, R1)]
binding result: binds

Reference: publication PMC6309736
